Laboratory results taken from the supplement of paper PMC10849652.
The other results are listed elsewhere or left out. Residues, ends and D or L forms follow the SMILES beside them. *: point of attachment. Cbz = O=C(OCc1ccccc1)*

Sequences of proteins named here, by UniProt entry; tags and fusion partners are left off. A change or cut given only in a name is not applied to a line headed by its entry.
UniProt O00443: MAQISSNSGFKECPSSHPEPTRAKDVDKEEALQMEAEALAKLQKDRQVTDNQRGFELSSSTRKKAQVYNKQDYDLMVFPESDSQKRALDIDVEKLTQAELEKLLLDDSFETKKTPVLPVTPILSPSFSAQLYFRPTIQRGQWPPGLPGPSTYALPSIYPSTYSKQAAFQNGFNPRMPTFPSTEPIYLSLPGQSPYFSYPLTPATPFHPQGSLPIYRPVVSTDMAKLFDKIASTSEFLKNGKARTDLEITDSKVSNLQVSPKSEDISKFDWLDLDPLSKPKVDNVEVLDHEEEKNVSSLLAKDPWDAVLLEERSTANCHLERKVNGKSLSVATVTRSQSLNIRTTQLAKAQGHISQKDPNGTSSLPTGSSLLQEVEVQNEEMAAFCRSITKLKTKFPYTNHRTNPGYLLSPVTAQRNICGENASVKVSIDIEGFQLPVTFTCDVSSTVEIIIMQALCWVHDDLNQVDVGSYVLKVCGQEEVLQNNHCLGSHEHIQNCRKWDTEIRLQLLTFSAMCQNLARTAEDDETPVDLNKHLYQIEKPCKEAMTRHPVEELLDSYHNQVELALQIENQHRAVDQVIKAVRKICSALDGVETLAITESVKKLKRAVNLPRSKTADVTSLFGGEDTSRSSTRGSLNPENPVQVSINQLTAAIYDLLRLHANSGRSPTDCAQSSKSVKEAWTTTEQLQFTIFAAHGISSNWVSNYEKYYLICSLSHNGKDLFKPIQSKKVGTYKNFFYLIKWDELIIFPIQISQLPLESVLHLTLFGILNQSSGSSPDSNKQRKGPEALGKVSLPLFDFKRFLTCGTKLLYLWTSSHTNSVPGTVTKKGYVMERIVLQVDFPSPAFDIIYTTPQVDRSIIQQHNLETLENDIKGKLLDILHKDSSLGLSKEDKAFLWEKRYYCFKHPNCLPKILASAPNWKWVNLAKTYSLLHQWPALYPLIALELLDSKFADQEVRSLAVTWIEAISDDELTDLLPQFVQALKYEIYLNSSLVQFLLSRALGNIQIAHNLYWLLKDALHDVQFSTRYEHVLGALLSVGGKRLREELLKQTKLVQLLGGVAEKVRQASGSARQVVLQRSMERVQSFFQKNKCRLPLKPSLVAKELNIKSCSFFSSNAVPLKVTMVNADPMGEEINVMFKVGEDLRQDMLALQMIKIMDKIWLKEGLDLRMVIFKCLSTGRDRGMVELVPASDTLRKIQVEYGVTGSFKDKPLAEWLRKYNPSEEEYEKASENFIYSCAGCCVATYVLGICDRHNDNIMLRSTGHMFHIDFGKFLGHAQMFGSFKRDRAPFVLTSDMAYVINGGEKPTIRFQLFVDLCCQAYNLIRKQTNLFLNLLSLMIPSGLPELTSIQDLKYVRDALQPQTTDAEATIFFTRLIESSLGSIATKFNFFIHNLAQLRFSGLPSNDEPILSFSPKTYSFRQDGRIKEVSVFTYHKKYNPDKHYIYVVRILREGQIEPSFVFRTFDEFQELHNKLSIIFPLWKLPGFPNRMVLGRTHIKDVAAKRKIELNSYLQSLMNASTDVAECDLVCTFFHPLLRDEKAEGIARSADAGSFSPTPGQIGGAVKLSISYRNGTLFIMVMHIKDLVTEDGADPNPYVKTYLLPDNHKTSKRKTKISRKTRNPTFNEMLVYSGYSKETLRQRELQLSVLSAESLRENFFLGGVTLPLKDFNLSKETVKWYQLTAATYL
UniProt P08567: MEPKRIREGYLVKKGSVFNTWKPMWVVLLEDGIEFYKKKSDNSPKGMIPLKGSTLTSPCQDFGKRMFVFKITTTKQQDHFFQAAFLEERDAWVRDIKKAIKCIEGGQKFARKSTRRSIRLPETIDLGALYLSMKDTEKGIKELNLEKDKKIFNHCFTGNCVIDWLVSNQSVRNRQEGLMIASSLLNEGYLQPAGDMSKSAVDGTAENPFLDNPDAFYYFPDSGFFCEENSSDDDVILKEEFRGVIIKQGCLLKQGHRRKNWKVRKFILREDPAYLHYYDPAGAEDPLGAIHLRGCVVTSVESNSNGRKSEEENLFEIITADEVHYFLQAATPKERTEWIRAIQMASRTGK
UniProt Q03405, whole entry, looked up: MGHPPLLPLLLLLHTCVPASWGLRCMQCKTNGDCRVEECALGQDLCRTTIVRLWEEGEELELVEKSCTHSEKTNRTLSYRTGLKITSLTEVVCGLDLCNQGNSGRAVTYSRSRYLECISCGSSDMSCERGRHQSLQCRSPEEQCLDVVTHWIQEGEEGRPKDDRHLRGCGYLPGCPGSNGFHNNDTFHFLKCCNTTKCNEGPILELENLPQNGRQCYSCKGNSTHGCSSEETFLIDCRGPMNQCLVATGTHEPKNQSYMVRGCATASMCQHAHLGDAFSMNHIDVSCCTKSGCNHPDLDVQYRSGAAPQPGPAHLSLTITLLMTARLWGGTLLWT
UniProt Q8IUZ5: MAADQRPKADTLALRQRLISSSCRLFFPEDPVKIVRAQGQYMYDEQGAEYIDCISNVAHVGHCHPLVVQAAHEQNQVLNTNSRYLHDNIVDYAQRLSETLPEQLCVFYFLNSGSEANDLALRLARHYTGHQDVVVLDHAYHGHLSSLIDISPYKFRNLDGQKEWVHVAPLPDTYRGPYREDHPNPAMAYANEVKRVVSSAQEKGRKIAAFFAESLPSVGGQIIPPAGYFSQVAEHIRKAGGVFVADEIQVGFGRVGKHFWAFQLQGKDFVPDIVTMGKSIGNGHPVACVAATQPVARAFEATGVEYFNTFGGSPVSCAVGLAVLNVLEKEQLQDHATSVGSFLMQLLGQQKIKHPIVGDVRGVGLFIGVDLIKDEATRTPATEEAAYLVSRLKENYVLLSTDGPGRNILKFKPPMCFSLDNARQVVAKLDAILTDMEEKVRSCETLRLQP
UniProt Q8N2W9: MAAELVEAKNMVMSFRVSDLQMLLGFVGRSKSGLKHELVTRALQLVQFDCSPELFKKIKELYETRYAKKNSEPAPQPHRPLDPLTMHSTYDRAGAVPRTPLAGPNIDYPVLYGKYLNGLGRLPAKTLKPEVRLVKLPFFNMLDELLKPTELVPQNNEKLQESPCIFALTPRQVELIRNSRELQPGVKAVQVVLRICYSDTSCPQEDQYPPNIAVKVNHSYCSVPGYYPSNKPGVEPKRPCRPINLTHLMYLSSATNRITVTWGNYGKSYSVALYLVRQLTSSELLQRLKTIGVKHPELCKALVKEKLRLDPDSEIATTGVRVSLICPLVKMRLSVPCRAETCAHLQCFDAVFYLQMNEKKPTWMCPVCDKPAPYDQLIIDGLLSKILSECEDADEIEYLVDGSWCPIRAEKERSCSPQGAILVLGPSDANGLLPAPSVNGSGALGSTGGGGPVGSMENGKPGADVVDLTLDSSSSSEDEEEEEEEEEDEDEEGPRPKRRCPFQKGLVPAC
UniProt Q9Y446: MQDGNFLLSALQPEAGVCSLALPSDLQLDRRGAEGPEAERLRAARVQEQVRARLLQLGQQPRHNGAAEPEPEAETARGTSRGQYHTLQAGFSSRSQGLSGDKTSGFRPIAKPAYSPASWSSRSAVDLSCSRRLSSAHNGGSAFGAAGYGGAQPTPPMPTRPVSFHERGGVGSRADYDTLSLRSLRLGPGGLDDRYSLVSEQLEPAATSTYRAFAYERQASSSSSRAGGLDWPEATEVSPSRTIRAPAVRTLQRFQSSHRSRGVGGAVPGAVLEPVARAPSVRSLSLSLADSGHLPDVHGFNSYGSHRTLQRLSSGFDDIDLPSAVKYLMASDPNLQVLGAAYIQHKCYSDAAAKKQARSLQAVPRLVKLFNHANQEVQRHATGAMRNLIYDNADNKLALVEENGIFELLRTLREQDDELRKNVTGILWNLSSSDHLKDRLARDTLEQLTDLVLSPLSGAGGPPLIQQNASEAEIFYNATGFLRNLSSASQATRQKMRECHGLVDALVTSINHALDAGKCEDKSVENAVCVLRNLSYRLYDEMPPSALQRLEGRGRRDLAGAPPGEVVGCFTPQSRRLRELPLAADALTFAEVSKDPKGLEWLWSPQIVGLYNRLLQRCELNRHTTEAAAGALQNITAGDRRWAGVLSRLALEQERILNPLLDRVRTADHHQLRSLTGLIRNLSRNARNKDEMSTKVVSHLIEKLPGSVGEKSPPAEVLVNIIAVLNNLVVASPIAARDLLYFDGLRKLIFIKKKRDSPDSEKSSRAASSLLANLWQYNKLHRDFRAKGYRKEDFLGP
UniProt Q9NRD5, whole entry, looked up: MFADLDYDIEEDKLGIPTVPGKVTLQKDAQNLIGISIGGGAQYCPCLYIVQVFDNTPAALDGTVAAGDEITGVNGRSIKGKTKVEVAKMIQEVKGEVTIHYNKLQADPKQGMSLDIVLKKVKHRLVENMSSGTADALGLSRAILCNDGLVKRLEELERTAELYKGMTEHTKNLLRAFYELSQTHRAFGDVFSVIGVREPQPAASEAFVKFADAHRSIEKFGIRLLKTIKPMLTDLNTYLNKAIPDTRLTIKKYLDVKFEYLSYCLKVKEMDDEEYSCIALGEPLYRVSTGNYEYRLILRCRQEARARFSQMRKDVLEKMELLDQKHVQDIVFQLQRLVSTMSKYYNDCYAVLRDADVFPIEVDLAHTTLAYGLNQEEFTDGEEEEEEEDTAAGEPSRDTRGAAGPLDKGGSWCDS
UniProt Q96CS7: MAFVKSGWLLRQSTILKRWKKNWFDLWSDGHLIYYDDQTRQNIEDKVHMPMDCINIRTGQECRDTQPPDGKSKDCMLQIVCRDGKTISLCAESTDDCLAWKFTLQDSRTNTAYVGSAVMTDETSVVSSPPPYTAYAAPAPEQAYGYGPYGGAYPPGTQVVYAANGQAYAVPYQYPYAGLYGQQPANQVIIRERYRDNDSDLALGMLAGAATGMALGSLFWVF
UniProt Q8IXK0: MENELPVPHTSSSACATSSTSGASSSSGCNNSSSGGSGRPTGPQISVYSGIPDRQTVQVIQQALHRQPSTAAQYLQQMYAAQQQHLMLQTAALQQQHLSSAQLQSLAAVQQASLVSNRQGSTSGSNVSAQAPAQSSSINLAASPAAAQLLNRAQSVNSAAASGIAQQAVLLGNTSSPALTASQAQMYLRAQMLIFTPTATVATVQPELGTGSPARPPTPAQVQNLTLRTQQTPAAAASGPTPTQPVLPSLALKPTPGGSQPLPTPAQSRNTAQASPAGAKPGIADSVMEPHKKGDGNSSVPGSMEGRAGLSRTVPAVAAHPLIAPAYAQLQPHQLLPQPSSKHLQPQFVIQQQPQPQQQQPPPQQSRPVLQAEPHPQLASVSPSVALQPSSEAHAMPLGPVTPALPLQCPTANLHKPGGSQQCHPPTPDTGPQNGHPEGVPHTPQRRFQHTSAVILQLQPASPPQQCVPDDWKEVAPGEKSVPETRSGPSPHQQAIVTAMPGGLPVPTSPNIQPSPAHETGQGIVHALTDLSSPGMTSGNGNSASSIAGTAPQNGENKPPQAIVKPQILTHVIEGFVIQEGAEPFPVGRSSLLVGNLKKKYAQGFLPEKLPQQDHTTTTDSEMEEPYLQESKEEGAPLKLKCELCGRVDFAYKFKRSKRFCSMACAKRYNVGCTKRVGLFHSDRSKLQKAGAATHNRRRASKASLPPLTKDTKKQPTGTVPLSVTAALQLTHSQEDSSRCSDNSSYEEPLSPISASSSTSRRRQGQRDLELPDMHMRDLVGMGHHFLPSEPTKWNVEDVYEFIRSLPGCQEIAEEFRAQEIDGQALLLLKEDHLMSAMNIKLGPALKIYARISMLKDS
UniProt P07205: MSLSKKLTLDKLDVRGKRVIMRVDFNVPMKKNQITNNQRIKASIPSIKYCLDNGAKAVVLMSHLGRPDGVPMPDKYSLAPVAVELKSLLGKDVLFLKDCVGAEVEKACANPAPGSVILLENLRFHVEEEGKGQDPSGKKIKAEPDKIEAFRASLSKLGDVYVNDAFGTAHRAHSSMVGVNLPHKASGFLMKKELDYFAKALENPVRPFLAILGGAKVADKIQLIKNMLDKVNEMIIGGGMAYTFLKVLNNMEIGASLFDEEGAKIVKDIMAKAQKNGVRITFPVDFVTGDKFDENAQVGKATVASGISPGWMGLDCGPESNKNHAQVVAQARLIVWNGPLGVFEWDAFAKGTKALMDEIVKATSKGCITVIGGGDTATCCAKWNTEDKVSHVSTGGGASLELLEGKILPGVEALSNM
UniProt P14618, whole entry, looked up: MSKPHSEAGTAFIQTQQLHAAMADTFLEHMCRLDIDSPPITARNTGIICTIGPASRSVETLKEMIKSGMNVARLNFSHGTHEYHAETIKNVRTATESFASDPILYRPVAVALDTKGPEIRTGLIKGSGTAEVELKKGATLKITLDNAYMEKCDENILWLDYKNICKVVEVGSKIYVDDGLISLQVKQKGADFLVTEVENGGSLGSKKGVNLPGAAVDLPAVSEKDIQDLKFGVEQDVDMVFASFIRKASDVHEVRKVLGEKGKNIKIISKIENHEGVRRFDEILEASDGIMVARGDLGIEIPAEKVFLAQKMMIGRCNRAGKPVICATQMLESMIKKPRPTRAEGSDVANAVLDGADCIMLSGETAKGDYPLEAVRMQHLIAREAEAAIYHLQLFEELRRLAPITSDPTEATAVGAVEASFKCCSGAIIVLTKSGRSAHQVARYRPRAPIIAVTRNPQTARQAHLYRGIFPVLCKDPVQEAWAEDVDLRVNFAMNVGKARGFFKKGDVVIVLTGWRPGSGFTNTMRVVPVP

Experiments:
Assay in all cases: log2 fold change, soluble protein after heating vs DMSO (PISA); higher = thermal stabilisation; K562 cells, 10 uM, 30 min; active = over 0.2 and 3.5 SD of the protein, either way, in both replicates (recomputed)
[1] = compound: C1=CC2=NC=CN=C2C=C1/C=C/3\C(=O)NC(=O)S3
Method in brief: (§1)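 For each measurement, 10 μM compound was applied for 30 min to K562 cells at 2×10^6 cells/mL. Aliquots were heated for 3 min across 48°C-58°C, pooled, and extracted in PBS with 0.5% NP-40 at 4°C; the supernatant after 21,000xg for 90 min was soluble protein. This was quantified by TMTpro 16plex LC-MS/MS with channel sums equalised, and thermal stability was reported relative to control samples from duplicates, on a log2 fold-change scale.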

IRAK-1-4 Inhibitor I = compound: C1COCCN1CCN2C3=CC=CC=C3N=C2NC(=O)C4=CC(=CC=C4)[N+](=O)[O-] [IRAK-1-4 Inhibitor I]
Method in brief: as §1

ibrutinib = compound: C=CC(=O)N1CCC[C@@H](n2nc(-c3ccc(Oc4ccccc4)cc3)c3c(N)ncnc32)C1 [ibrutinib]
Method in brief: as §1

pinometostat = compound: CC(C)N(C[C@H]1O[C@@H](n2cnc3c(N)ncnc32)[C@H](O)[C@@H]1O)[C@H]1C[C@@H](CCc2nc3cc(C(C)(C)C)ccc3[nH]2)C1 [pinometostat]
Method in brief: as §1

[2] = compound: C1=CC(=C(C=C1Cl)C2=NC3=NC=CN=C3C(=N2)NC4=CC=NC=C4)F
Method in brief: as §1

[3] = compound: CC(C)(O)CC(=O)NCCn1ccc2ncnc(Nc3ccc(Oc4cccc(C(F)(F)F)c4)c(Cl)c3)c21
Method in brief: as §1

[4] = compound: CC1=C(C(CC(=O)N1)C2=CC=C(C=C2)C(F)(F)F)C(=O)NC3=C(C=C4C(=C3)C=NN4)F
Method in brief: as §1

[5] = compound: C/C(=N\NC(=O)C1=CC(=CC=C1)S(=O)(=O)N2CCOCC2)/C3=C(C=CC(=C3)Cl)O
Method in brief: as §1

[6] = compound: C1=CC2=C(C=CC(=C2)/C=C\3/C(=O)NC(=NCC4=CC=CS4)S3)N=C1
Method in brief: as §1

[7] = compound: C1=CC=C(C=C1)C2=NC(=C(N2)C3=CC=NC=C3)C4=CC(=C(C=C4)Cl)O
Method in brief: as §1

[8] = compound: C1=CC=C2C(=C1)C3=NNC4=CC=CC(=C43)C2=O
Method in brief: as §1

[9] = compound: C1CCN(C1)C(=O)NC2=CC=CC(=C2)NC3=NC=C(C(=N3)NCCC4=CN=CN4)Br
Method in brief: as §1

[10] = compound: C1CN(CCC1(CC2=CC=C(C=C2)Cl)N)C3=NC=NC4=C3C=CN4
Method in brief: as §1

[11] = compound: CC(=O)c1cnc2ccc(-c3cc(Cl)c(O)c(Cl)c3)nc2c1N[C@H]1CC[C@H](CN(C)C)CC1
Method in brief: as §1

ralimetinib = compound: CC(C)(C)Cn1c(N)nc2ccc(-c3[nH]c(C(C)(C)C)nc3-c3ccc(F)cc3)nc21 [ralimetinib]
Method in brief: as §1

[12] = compound: CC(C)C[C@@H](C=O)NC(=O)[C@H](CC(C)C)NC(=O)[C@H](CC(C)C)NC(=O)OCc1ccccc1
Method in brief: as §1

[13] = compound: CC1=C(C2=C(C=C1)C(=O)C3=CC=CC=C3N2CCCN)C
Method in brief: as §1

erlotinib = compound: C#Cc1cccc(Nc2ncnc3cc(OCCOC)c(OCCOC)cc23)c1 [erlotinib]
Method in brief: as §1

[14] = compound: C1=CC(=CC=C1C2=NC3=C(N2)C=C(C=C3)C(=O)N)OC4=CC=C(C=C4)Cl
Method in brief: as §1

[15] = compound: CC(C)C1=C2N=C(C=C(N2N=C1)NCC3=CC=CC=C3)NCCCCCCN
Method in brief: as §1

Measured: log2 fold change

PFKM (UniProt F8VTQ3)
inactive: [1] -0.075 | IRAK-1-4 Inhibitor I 0.009 | ibrutinib 0 | pinometostat -0.055

PFKFB1 (UniProt P16118)
inactive: [2] 0.071 | [1] -0.072 | ibrutinib -0.01 | [3] -0.068 | [4] 0.032

PLA2G4B isoform 6 (UniProt P0C869)
inactive: [5] -0.231 | [6] 0.08 | [1] -0.032 | [7] 0.01 | [8] 0.043 | [9] -0.117 | [10] 0.255 | IRAK-1-4 Inhibitor I -0.078 | ibrutinib -0.09 | [11] 0 | ralimetinib 0.155 | [12] 0.02 | pinometostat 0.004 | [4] -0.103 | [13] 0.126

PIK3C2A (UniProt O00443)
inactive: erlotinib 0.038 | [2] -0.099 | [14] -0.086 | [7] -0.202 | IRAK-1-4 Inhibitor I -0.103 | ralimetinib 0.167 | [3] 0 | [15] 0.112 | [12] 0.281 | pinometostat -0.1 | [4] -0.056

PHRF1 (UniProt Q9P1Y6)
active: [15] 0.718
inactive: erlotinib -0.161 | [14] 0.082 | [7] 0.073 | ralimetinib -0.144 | [12] 0.119

PIGM (UniProt Q9H3S5)
inactive: erlotinib 0.08 | [14] -0.049 | [1] 0.122 | IRAK-1-4 Inhibitor I 0.022 | ibrutinib 0.06 | [15] 0.018 | pinometostat 0.083 | [4] 0.006

PKLR (UniProt F8W6W2)
inactive: [5] 0.024 | [6] 0.177 | [1] -0.031 | [8] -0.012 | ibrutinib 0.037 | [11] -0.28

PLEK (UniProt P08567)
inactive: erlotinib -0.007 | [14] -0.024 | [7] -0.072 | IRAK-1-4 Inhibitor I -0.187 | ralimetinib -0.114 | [15] 0.09 | [12] 0.057 | pinometostat -0.087

PLAUR (UniProt Q03405)
inactive: [5] -0.019 | [6] -0.159 | [8] -0.176 | [11] -0.026

PHYKPL (UniProt Q8IUZ5)
inactive: erlotinib 0.004 | [2] 0.12 | [14] 0.003 | [9] 0.022 | [10] 0.2 | [3] -0.488 | [15] 0.109 | [4] 0.118 | [13] -0.005

PIAS4 (UniProt Q8N2W9)
inactive: [2] 0.061 | [7] -0.214 | [9] 0.129 | [10] -0.045 | IRAK-1-4 Inhibitor I -0.111 | ralimetinib -0.005 | [12] 0.035 | pinometostat 0.037 | [13] -0.275
active: [3] -0.781

Pulled one by one from above, two records:
PIAS4 (UniProt Q8N2W9)
inactive: [2] 0.061 | [7] -0.214 | [9] 0.129 | [10] -0.045 | IRAK-1-4 Inhibitor I -0.111 | ralimetinib -0.005 | [12] 0.035 | pinometostat 0.037 | [13] -0.275
active: [3] -0.781

PLEK (UniProt P08567)
inactive: erlotinib -0.007 | [14] -0.024 | [7] -0.072 | IRAK-1-4 Inhibitor I -0.187 | ralimetinib -0.114 | [15] 0.09 | [12] 0.057 | pinometostat -0.087

(further entries)

PKP3 isoform 2 (UniProt Q9Y446)
inactive: [5] 0.001 | [2] -0.175 | [6] 0.052 | [1] -0.052 | [7] -0.031 | [8] -0.002 | [9] -0.216 | [10] -0.164 | IRAK-1-4 Inhibitor I -0.059 | ibrutinib -0.006 | [11] -0.33 | ralimetinib 0.09 | [3] 0.016 | [12] 0.1 | pinometostat 0.213 | [13] 0.32

PLD6 (UniProt Q8N2A8)
inactive: [2] 0 | IRAK-1-4 Inhibitor I 0.217 | [3] -0.021 | pinometostat -0.012

PKIB isoform 2 (UniProt Q9C010)
inactive: erlotinib -0.057 | [14] -0.067 | [15] 0.102

PICK1 (UniProt Q9NRD5)
inactive: [2] 0.008 | [7] -0.217 | ralimetinib -0.139 | [3] 0.04 | [12] 0.062 | [4] -0.184

PLEKHB2 isoform 2 (UniProt Q96CS7)
inactive: [1] 0.277 | ibrutinib 0.003

PHC2 isoform 5 (UniProt Q8IXK0)
inactive: [2] 0.045 | [1] 0.14 | [7] -0.165 | IRAK-1-4 Inhibitor I -0.028 | ibrutinib -0.05 | ralimetinib -0.029 | [3] 0.12 | [12] 0.075 | pinometostat 0.1

PGK2 (UniProt P07205)
inactive: [5] -0.055 | [2] -0.082 | [6] 0.152 | [1] -0.018 | [7] -0.057 | [8] -0.012 | [9] 0.034 | [10] 0.029 | IRAK-1-4 Inhibitor I 0.039 | ibrutinib -0.003 | [11] 0.004 | ralimetinib -0.07 | [3] 0.008 | [12] 0.063 | pinometostat -0.032 | [13] -0.037

PIGB (UniProt Q92521)
inactive: erlotinib -0.008 | [2] -0.05 | [14] -0.013 | [7] -0.006 | [9] -0.032 | [10] 0.012 | IRAK-1-4 Inhibitor I -0.025 | ralimetinib 0.009 | [3] -0.002 | [15] 0.135 | [12] 0.04 | pinometostat 0.019 | [13] -0.072

PKHD1 (UniProt P08F94)
inactive: [5] -0.544 | [6] 0.339 | [8] -0.08 | [11] -0.11

PKM isoform 2 (UniProt P14618)
inactive: [5] -0.004 | [2] 0.075 | [6] -0.005 | [1] -0.18 | [7] -0.048 | [8] 0.04 | [9] -0.047 | [10] 0.003 | IRAK-1-4 Inhibitor I -0.018 | [11] 0 | ralimetinib 0.054 | [12] 0.023 | pinometostat 0.08 | [13] 0.034
active: [3] -0.561
